PubChem BioAssay AID743454 – Peter MacCallum Cancer Centre, 2014
Purpose: 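Genes whose loss kills vorinostat-resistant colon cancer cells under vorinostat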 (primary screen). System: human HCT116-VR colon cancer cells, selected for vorinostat resistance. Reagent: siRNA pool against human genes, 40 nM siRNA pool. Time to read-out: vorinostat for 24 h, read-out about 72 h after transfection. Conditions: vorinostat at 2.5 µM final. Read-out: 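Cell viability by CellTiter-Fluor and caspase 3/7 activity by luminescence, each scaled to mock wells per plate, duplicates averaged, then robust z-scored over all plates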. Scale: viability robust z-score: higher = more viable cells than screen typical; caspase robust z-score: higher = more caspase 3/7 activity than screen typical. Call rule: 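a knock-down is a hit when classed RV1 or RV2 for lowered viability, or CA1 or CA2 for caspase activation; those lethal without drug were dropped; hits were retested singly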.
Shown is one part, drawn at random, of about 18,000 reagents tested. 450 of them (2.5%) count as active. 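Single biological run; no consistent viability z cut-off exists, so the class columns, not z-scores, define the calls.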 Entries without a mark were called inactive.

| target gene | viability hit class | caspase hit class | viability robust z-score | caspase robust z-score |
| --- | --- | --- | --- | --- |
| SINHCAF (SIN3-HDAC complex associated factor) | no change | no change | -1.04 | 1.45 |
| TNFSF12 (TNF superfamily member 12) | no change | no change | -0.5 | -0.94 |
| YWHAG | no change | no change | -0.52 | 1.79 |
| NOB1 (NIN1 (RPN12) binding protein 1 homolog) | no change | no change | -0.4 | 4.79 |
| DUOXA1 (dual oxidase maturation factor 1) | no change | no change | -2.18 | 0.22 |
| TTC19 (tetratricopeptide repeat domain 19) | no change | no change | -0.29 | 0.18 |
| ALDH3A1 (aldehyde dehydrogenase 3 family member A1) | no change | no change | 0.6 | -0.04 |
| KIAA0825 | no change | no change | 1.28 | -0.24 |
| GLYR1 (glyoxylate reductase 1 homolog) | no change | no change | 0.36 | -0.04 |
| CNFN (cornifelin) | no change | no change | -0.4 | 1.73 |
| TFF3 (trefoil factor 3) | no change | no change | 1.48 | -0.3 |
| DNAJC5 (DnaJ heat shock protein family (Hsp40) member C5) | no change | no change | 1.85 | 1.25 |
| SRP54 (signal recognition particle 54) | no change | no change | -1.25 | -0.56 |
| ACAN (aggrecan) | no change | no change | -0.7 | 1.27 |
| PSTK (phosphoseryl-tRNA kinase) | no change | no change | -0.24 | -0.23 |
| MCEE (methylmalonyl-CoA epimerase) | no change | no change | 1.35 | -0.92 |
| GBE1 (1,4-alpha-glucan branching enzyme 1) | no change | no change | 0.09 | -0.74 |
| METTL15 (methyltransferase 15, mitochondrial 12S rRNA N4-cytidine) | no change | no change | 0.69 | -0.94 |
| CACNG7 (calcium voltage-gated channel auxiliary subunit gamma 7) | no change | no change | -0.68 | -1.08 |
| EFHC2 (EF-hand domain containing 2) | no change | no change | -0.24 | 0.92 |
| GREB1 (growth regulating estrogen receptor binding 1) | no change | no change | -0.19 | -0.1 |
| CFAP298 (cilia and flagella associated protein 298) | no change | no change | 1.48 | 0.56 |
| AP3B1 (adaptor related protein complex 3 subunit beta 1) | no change | no change | -1.89 | 4.53 |
| LECT2 (leukocyte cell derived chemotaxin 2) | no change | no change | 1 | -1 |
| HNRNPC (heterogeneous nuclear ribonucleoprotein C) | no change | no change | -2.99 | 4.75 |
| OSGIN1 (oxidative stress induced growth inhibitor 1) | no change | no change | -0.24 | -0.28 |
| RAP1GAP2 (RAP1 GTPase activating protein 2) | no change | no change | 0.77 | -0.65 |
| RABEP1 (rabaptin, RAB GTPase binding effector protein 1) | no change | no change | 0.75 | -0.16 |
| ACOX2 (acyl-CoA oxidase 2) | no change | no change | 0.48 | 0.63 |
| CYRIA (CYFIP related Rac1 interactor A) | no change | no change | -0.9 | 0 |
| OR52M1 (olfactory receptor family 52 subfamily M member 1) | no change | no change | -2.03 | -0.34 |
| TARDBP (TAR DNA binding protein) | no change | no change | -0.48 | -0.87 |
| C9orf85 (chromosome 9 open reading frame 85) | no change | no change | 0.39 | -0.46 |
| MBD3L1 (methyl-CpG binding domain protein 3 like 1) | no change | no change | 0.62 | -0.84 |
| CALM1 (calmodulin 1) | no change | no change | -0.36 | -1.34 |
| HMGCR (3-hydroxy-3-methylglutaryl-CoA reductase) | no change | no change | 1.28 | 0.26 |
| ZAN (zonadhesin) | no change | no change | 1.05 | -0.08 |
| MAP3K13 (mitogen-activated protein kinase kinase kinase 13) | no change | no change | 0.3 | -0.46 |
| DEFB121 (defensin beta 121) | no change | no change | -0.78 | -0.7 |

Not a retest: an excerpt of the list.
| target gene | viability hit class | caspase hit class | viability robust z-score | caspase robust z-score |
| --- | --- | --- | --- | --- |
| CYRIA (CYFIP related Rac1 interactor A) | no change | no change | -0.9 | 0 |
| OR52M1 (olfactory receptor family 52 subfamily M member 1) | no change | no change | -2.03 | -0.34 |
| TARDBP (TAR DNA binding protein) | no change | no change | -0.48 | -0.87 |
| C9orf85 (chromosome 9 open reading frame 85) | no change | no change | 0.39 | -0.46 |
| MBD3L1 (methyl-CpG binding domain protein 3 like 1) | no change | no change | 0.62 | -0.84 |
| CALM1 (calmodulin 1) | no change | no change | -0.36 | -1.34 |
